PubChem BioAssay AID743121, NCATS | 2013

Purpose: 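Genes whose silencing strengthens cell killing by camptothecin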 (primary screen)
System: MDA-MB-231 cells, a human breast cancer line
Reagent: single siRNA against human genes, 20 nM siRNA (0.8 pmol per well)
Duration: 120 h (drug added 48 h after transfection, read 72 h later)
Conditions: camptothecin 20 nM (about EC30) for 72 h; vehicle 0.1% DMSO in parallel plates
Detection: 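Cell viability by ATP luminescence (CellTiter-Glo) as % of non-targeting siRNA wells, and the log2 ratio of viability without drug over viability with camptothecin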
Reading the numbers: log2 vehicle/camptothecin viability: higher = stronger sensitisation to camptothecin; viability with camptothecin: higher = more viable cells
Rule for the call: 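Each gene scored by redundant siRNA activity (RSA) over its individual siRNA ratios; a gene is called active at p < 0.001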
In all, the deposit lists about 26,000 reagents; below is a part drawn at random. 167 of all reagents (0.63%) count as active. 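Calls are per gene from RSA p-values that are not deposited; an individual active-marked siRNA can sensitise only weakly.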 Entries without a mark were called inactive. Reagents against one gene are numbered here. Further read-outs or replicates are left out here.

BRCA1 (BRCA1 DNA repair associated) #1 scored log2 vehicle/camptothecin viability 0.321 (active); viability with camptothecin (% of control) = 88.6.
BRCA1 (BRCA1 DNA repair associated) #2 scored log2 vehicle/camptothecin viability 0.0924 (active); viability with camptothecin (% of control) = 83.9.
Against BRCA1 (BRCA1 DNA repair associated) #3, the values are log2 vehicle/camptothecin viability 0.358 (active); viability with camptothecin (% of control) = 57.
Silencing of BRCA1 (BRCA1 DNA repair associated) #4 resulted in: log2 vehicle/camptothecin viability -0.223 (active); viability with camptothecin (% of control) = 46.7.
Knock-down of BRCA1 (BRCA1 DNA repair associated) #5 came out at: log2 vehicle/camptothecin viability 0.0756 (active); viability with camptothecin (% of control) = 32.5.
Knock-down of BRCA1 (BRCA1 DNA repair associated) #6 gave: log2 vehicle/camptothecin viability 0.639 (active); viability with camptothecin (% of control) = 34.9.
With knock-down of BRCA1 (BRCA1 DNA repair associated) #7, the record shows log2 vehicle/camptothecin viability 0.468 (active); viability with camptothecin (% of control) = 37.8.
With knock-down of BRCA1 (BRCA1 DNA repair associated) #8 the results were log2 vehicle/camptothecin viability 0.466 (active); viability with camptothecin (% of control) = 63.
Against GAST (gastrin) #1, the entry reads log2 vehicle/camptothecin viability -0.0842; viability with camptothecin (% of control) = 74.7.
GAST (gastrin) #2 gave log2 vehicle/camptothecin viability 0.13; viability with camptothecin (% of control) = 64.9.
GAST (gastrin) #3 showed log2 vehicle/camptothecin viability 0.365; viability with camptothecin (% of control) = 58.1.
GAST (gastrin) #4 showed log2 vehicle/camptothecin viability -0.38; viability with camptothecin (% of control) = 2.34.
For OR2H2 (olfactory receptor family 2 subfamily H member 2) #1, the values are log2 vehicle/camptothecin viability -0.411; viability with camptothecin (% of control) = 95.6.
For OR2H2 (olfactory receptor family 2 subfamily H member 2) #2, the values are log2 vehicle/camptothecin viability 0.254; viability with camptothecin (% of control) = 46.8.
OR2H2 (olfactory receptor family 2 subfamily H member 2) #3 gave log2 vehicle/camptothecin viability 0.195; viability with camptothecin (% of control) = 64.6.
For OR2H2 (olfactory receptor family 2 subfamily H member 2) #4, the entry reads log2 vehicle/camptothecin viability -0.123; viability with camptothecin (% of control) = 58.9.
For ARHGAP35 (Rho GTPase activating protein 35) #1, the entry reads log2 vehicle/camptothecin viability -0.198; viability with camptothecin (% of control) = 70.7.
Knock-down of ARHGAP35 (Rho GTPase activating protein 35) #2 gave: log2 vehicle/camptothecin viability -0.327; viability with camptothecin (% of control) = 90.6.
For ARHGAP35 (Rho GTPase activating protein 35) #3, the entry reads log2 vehicle/camptothecin viability 0.317; viability with camptothecin (% of control) = 14.2.
With knock-down of ARHGAP35 (Rho GTPase activating protein 35) #4, the screen gave log2 vehicle/camptothecin viability 0.0109; viability with camptothecin (% of control) = 48.1.
Against RHOJ (ras homolog family member J) #1, the values are log2 vehicle/camptothecin viability 0.385; viability with camptothecin (% of control) = 73.9.
With knock-down of RHOJ (ras homolog family member J) #2, the record shows log2 vehicle/camptothecin viability -0.417; viability with camptothecin (% of control) = 66.4.
RHOJ (ras homolog family member J) #3 showed log2 vehicle/camptothecin viability 0.0596; viability with camptothecin (% of control) = 91.1.
Against RHOJ (ras homolog family member J) #4, the values are log2 vehicle/camptothecin viability -0.175; viability with camptothecin (% of control) = 100.
Knock-down of CYP2J2 (cytochrome P450 family 2 subfamily J member 2) #1 came out at: log2 vehicle/camptothecin viability -0.0895; viability with camptothecin (% of control) = 91.7.
Against CYP2J2 (cytochrome P450 family 2 subfamily J member 2) #2, the entry reads log2 vehicle/camptothecin viability 0.123; viability with camptothecin (% of control) = 67.2.
With knock-down of CYP2J2 (cytochrome P450 family 2 subfamily J member 2) #3, the screen gave log2 vehicle/camptothecin viability -0.0192; viability with camptothecin (% of control) = 92.5.
Silencing of CD248 (CD248 molecule) #1 gave: log2 vehicle/camptothecin viability -0.293; viability with camptothecin (% of control) = 93.
Knock-down of CD248 (CD248 molecule) #2 gave: log2 vehicle/camptothecin viability 0.0382; viability with camptothecin (% of control) = 88.5.
CD248 (CD248 molecule) #3 scored log2 vehicle/camptothecin viability -0.664; viability with camptothecin (% of control) = 94.9.
MTHFD1 #1 gave log2 vehicle/camptothecin viability -0.787; viability with camptothecin (% of control) = 97.7.
With knock-down of MTHFD1 #2, the screen gave log2 vehicle/camptothecin viability 0.211; viability with camptothecin (% of control) = 47.6.
After knock-down of MTHFD1 #3, the screen gave log2 vehicle/camptothecin viability 0.671; viability with camptothecin (% of control) = 16.
MTHFD1 #4 gave log2 vehicle/camptothecin viability -0.266; viability with camptothecin (% of control) = 74.2.
With knock-down of RASD1 (ras related dexamethasone induced 1) #1 the results were log2 vehicle/camptothecin viability -0.379; viability with camptothecin (% of control) = 59.1.
For RASD1 (ras related dexamethasone induced 1) #2, the values are log2 vehicle/camptothecin viability 1.52; viability with camptothecin (% of control) = 19.5.
Depletion of RASD1 (ras related dexamethasone induced 1) #3 came out at: log2 vehicle/camptothecin viability 0.0541; viability with camptothecin (% of control) = 81.8.
RASD1 (ras related dexamethasone induced 1) #4 gave log2 vehicle/camptothecin viability -0.664; viability with camptothecin (% of control) = 52.8.

6 entries from above in another layout:
OR2H2 (olfactory receptor family 2 subfamily H member 2) #3
- log2 vehicle/camptothecin viability: 0.195
- viability with camptothecin (% of control): 64.6

OR2H2 (olfactory receptor family 2 subfamily H member 2) #4
- log2 vehicle/camptothecin viability: -0.123
- viability with camptothecin (% of control): 58.9

ARHGAP35 (Rho GTPase activating protein 35) #1
- log2 vehicle/camptothecin viability: -0.198
- viability with camptothecin (% of control): 70.7

ARHGAP35 (Rho GTPase activating protein 35) #2
- log2 vehicle/camptothecin viability: -0.327
- viability with camptothecin (% of control): 90.6

ARHGAP35 (Rho GTPase activating protein 35) #3
- log2 vehicle/camptothecin viability: 0.317
- viability with camptothecin (% of control): 14.2

ARHGAP35 (Rho GTPase activating protein 35) #4
- log2 vehicle/camptothecin viability: 0.0109
- viability with camptothecin (% of control): 48.1
